Measured values reported in paper PMC2031890.

Protein sequences, listed by entry. Tags and fused reporters are not part of them. Lines headed by an entry give the natural chain unless they say otherwise; changes in a name come on top.
UniProt Q9NB71: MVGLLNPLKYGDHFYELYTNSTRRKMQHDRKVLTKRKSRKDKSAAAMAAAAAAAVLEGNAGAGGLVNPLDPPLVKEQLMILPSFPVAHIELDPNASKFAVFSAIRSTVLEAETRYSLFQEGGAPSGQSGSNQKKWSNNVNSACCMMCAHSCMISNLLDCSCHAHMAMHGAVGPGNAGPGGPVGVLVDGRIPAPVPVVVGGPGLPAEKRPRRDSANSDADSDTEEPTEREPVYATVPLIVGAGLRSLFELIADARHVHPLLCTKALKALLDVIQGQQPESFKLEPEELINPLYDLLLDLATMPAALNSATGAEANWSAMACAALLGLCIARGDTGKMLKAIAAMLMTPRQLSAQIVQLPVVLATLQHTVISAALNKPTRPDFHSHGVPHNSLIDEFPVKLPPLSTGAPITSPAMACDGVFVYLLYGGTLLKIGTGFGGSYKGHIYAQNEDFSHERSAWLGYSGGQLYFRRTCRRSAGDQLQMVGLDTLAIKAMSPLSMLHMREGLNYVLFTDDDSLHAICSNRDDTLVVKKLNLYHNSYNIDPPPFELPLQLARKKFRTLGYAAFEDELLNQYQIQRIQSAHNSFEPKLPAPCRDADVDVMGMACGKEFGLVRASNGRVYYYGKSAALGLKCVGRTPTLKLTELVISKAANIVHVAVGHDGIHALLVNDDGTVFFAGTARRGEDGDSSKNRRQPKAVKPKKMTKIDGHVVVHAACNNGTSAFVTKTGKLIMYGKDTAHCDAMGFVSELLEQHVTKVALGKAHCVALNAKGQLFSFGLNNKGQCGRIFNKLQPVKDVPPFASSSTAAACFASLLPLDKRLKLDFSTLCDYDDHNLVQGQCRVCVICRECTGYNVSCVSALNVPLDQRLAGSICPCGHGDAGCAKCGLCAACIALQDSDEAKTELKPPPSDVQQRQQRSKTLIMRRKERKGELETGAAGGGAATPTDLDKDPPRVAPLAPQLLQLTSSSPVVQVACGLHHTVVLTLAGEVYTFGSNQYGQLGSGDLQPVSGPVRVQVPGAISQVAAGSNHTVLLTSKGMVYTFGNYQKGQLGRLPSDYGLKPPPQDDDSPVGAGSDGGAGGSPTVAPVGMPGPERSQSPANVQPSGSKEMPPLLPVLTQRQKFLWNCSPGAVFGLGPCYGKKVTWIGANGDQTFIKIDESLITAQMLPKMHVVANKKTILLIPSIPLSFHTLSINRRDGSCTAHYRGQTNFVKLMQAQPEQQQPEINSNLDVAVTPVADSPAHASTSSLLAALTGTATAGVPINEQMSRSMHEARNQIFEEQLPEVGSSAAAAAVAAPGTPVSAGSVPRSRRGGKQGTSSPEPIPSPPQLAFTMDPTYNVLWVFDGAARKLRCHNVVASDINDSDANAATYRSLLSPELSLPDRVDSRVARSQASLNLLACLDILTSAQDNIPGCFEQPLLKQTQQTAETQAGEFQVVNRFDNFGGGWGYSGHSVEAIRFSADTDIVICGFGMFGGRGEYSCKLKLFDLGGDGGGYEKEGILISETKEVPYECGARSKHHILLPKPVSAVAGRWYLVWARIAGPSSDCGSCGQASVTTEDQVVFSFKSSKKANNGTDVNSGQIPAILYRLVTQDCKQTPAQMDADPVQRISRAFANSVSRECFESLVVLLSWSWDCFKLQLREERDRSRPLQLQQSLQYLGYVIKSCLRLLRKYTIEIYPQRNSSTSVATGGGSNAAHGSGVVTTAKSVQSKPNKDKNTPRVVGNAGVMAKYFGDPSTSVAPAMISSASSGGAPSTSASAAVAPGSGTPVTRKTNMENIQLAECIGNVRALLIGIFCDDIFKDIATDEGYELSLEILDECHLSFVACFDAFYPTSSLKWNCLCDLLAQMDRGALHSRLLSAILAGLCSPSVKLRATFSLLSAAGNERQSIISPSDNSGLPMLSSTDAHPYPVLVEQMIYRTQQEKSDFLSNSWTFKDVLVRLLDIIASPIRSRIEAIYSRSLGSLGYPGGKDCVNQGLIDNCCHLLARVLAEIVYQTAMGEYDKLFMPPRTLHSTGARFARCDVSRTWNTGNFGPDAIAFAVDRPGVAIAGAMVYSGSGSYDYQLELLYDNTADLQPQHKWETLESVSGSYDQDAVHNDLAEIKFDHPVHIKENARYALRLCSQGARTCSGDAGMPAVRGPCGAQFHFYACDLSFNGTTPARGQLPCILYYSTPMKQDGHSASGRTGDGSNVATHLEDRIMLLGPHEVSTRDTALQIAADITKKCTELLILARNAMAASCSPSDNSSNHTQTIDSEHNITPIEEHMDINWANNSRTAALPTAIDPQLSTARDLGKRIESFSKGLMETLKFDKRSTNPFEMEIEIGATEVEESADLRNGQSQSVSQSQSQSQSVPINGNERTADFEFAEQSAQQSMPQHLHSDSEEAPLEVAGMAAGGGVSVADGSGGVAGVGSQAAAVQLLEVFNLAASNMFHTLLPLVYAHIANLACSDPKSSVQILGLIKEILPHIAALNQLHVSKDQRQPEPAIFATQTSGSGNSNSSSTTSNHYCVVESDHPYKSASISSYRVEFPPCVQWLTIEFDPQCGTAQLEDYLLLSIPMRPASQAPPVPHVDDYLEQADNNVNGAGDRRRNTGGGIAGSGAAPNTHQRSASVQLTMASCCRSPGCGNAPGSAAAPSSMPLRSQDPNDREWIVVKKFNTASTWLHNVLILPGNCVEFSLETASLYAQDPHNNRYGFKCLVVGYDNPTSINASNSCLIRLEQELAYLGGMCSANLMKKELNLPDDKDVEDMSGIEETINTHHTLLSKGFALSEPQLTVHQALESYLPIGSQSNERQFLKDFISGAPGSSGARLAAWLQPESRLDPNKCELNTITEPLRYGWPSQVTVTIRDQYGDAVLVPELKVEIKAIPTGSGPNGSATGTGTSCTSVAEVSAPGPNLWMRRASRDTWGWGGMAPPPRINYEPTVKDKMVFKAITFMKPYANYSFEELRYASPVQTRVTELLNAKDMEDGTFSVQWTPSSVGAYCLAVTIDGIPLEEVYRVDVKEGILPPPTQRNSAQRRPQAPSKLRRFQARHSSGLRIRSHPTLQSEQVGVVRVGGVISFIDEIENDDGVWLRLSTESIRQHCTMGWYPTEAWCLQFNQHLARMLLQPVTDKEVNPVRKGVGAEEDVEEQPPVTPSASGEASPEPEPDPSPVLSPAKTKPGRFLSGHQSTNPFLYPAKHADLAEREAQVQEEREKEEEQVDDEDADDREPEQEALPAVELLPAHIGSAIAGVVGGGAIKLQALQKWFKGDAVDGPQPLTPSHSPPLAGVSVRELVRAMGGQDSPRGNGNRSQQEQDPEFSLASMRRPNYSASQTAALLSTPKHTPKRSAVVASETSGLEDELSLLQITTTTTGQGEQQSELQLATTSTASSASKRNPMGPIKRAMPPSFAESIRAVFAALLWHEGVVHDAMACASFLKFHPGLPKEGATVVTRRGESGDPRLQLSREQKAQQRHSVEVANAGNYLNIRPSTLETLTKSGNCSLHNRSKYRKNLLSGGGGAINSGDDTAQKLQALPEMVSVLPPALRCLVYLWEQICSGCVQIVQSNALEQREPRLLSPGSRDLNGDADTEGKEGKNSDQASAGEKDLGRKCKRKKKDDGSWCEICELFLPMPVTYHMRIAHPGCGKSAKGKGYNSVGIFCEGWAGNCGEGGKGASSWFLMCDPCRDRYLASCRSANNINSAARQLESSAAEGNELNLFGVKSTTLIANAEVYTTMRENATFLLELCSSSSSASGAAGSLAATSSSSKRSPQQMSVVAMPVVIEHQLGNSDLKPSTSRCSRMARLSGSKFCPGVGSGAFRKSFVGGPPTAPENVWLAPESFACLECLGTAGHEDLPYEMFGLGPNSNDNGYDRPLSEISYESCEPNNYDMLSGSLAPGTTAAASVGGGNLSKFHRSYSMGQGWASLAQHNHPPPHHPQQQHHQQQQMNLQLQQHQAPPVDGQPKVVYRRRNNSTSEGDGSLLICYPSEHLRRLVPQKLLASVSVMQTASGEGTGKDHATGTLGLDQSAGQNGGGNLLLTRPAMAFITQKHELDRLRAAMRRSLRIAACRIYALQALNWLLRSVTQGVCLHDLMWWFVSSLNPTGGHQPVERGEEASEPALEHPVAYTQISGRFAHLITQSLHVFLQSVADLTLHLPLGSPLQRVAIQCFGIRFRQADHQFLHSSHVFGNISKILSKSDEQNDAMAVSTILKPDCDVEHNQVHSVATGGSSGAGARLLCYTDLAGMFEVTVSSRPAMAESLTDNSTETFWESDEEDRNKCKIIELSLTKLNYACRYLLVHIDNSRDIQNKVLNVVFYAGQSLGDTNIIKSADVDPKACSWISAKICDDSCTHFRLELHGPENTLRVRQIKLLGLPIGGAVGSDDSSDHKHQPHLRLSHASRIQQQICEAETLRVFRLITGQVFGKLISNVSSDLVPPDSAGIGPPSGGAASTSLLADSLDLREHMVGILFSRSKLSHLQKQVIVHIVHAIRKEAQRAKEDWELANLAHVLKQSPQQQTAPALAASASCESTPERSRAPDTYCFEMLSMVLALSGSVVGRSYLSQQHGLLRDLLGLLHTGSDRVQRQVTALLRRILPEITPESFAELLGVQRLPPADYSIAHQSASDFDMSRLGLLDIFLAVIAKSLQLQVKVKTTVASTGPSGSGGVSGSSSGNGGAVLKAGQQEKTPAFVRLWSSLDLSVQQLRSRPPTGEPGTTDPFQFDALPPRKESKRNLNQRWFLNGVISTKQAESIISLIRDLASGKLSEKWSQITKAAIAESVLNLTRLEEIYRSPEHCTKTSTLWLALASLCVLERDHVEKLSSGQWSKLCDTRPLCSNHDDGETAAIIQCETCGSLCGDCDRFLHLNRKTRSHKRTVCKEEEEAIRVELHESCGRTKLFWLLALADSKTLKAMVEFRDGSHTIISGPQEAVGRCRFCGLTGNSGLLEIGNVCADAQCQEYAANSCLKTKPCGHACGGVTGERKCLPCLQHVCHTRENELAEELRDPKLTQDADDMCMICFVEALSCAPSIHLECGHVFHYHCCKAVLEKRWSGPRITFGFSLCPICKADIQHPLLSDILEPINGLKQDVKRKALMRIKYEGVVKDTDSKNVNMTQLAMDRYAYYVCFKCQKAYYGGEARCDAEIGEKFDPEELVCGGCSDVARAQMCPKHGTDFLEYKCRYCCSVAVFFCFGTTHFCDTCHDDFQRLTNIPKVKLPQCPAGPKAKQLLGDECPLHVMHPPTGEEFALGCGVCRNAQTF

Molecular target: TAP-tagged HighwireΔRING (Drosophila) (UniProt Q9NB71)
Test: affinity purification with mass spectrometry; tandem affinity purification of TAP-HiwΔRING from adult fly head homogenate at 4°C (50 mM Tris-HCl pH 7.5, 125 mM NaCl, 0.7% NP40); eluate analysed by SDS-PAGE bands + LC-MS/MS and directly by LC-MS/MS

B1: DFsn (CG4643), endogenous (protein, UniProt Q9V6L9 1-255)
chain: MVDPVAALCNYNVLEVIFSYLELDDLSHCSQVCKSWYHFLNDENSDVWRWHCLNKLPKESLKSDLLASVSTYKTKLRAYFHAWSPNDCSRNVYIKPNGFTLHRNPVAQSTDAARGKIGFRHGRHTWEVIWEGPLGTVAVIGISTKEAALQCHGYVALLGSDDQSWGWNLVENHLLHNGDMQGSYPLLNNAPKYQVGERIRVILDCEDNTLSFEKNYEFLGVAFRGLPDKKLYPTVSAVYGNTEVSMVYLGTPLDG
binding: binds

These are yes or no findings as the source states them, for the method shown. In cells and extracts the contact can be indirect. These calls come from enrichment with a bait or labelling near it, and not all partners need be listed.
